Test results as given in PubChem BioAssay AID2685 (National Center for Advancing Translational Sciences (NCATS), 2010).
Among all 320,000 compounds or so, about 2,100 (0.66%) were called active. Inconclusive results, whose numbers are uncertain, are shown with a selection of clear calls. Calls follow the shape of the dose curve; as a rule, active = well fitted inhibition curve with a large enough effect in the signal ratio, with a control signal flat (not every such curve was filed as active); inconclusive = small, poorly fitted or top-dose-only effect, or effect the other way, or a change in a side signal; inactive = flat fitted curve, though single readings scatter; the % refers to the signal ratio. Potencies of inconclusive entries are doubtful fits and often do not repeat.

Assay: qHTS Assay for Lipid Storage Modulators in Drosophila S3 Cells
Details: BODIPY lipid droplet fluorescence, 18-24 h, cells fed with added oleic acid; lipid storage change, negative = inhibition: at 46.1 µM (top of the series) unless noted
Method in brief: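 Drosophila S3 cells got compounds at several concentrations plus oleic acid (400 uM solution). Laser-scanning cytometry with 488 nm excitation read lipid droplets at 500-530 nm and cells at 575-640 nm. Percent activity was relative to 20 uM Triacsin C.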
% is scaled to controls: 0 for no effect and ±100 for the full control effect; potency is read from the fitted curve at half-maximal effect.

Compound | lipid storage change, negative = inhibition | Potency
CC(C)CC(=O)Nc1ccc(N2CCN(C(=O)c3cccs3)CC2)cc1 | inconclusive: -57.6% | –
Cc1ccc(-c2cc(C(F)F)n3ncc(C(=O)Nc4c(C)nn(Cc5ccccc5Cl)c4C)c3n2)cc1 | inconclusive: -5.41% | –
CC(C)CN1CCC(CN(C)Cc2nc(-c3cnccn3)no2)CC1 | inconclusive: 16.4% | –
CCN(CC)C(=O)c1sc(NC(=O)c2ccoc2C)c(C(=O)OC)c1C | – | inconclusive: 1.16 µM [activator, full curve]
COC(=O)c1nnn(-c2ccsc2C(=O)OC)c1C(=O)OC | inconclusive: -12.7% | –
COc1ccc(Cl)cc1-c1n[nH]c(=S)n1Cc1ccccc1 | inconclusive: 0.599% | –
O=C1[C@@H]2C(Cc3ccc(O)cc3)NC3(C(=O)Nc4ccc(F)cc43)[C@@H]2C(=O)N1c1ccccc1 (stereo partly specified) | – | inconclusive: 3.66 µM [activator, single point]
C=CCNCc1ccccc1[N+](=O)[O-] | inconclusive: 8% | –
O=C(NNC(=O)c1cc(Br)ccc1O)c1csc(N2CCOCC2)n1 | inconclusive: -62.4% | –
O=C1CC(SCc2nc3ccccc3[nH]2)C(=O)N1c1ccc(F)cc1 (stereo unspecified) | inconclusive: 23.6% | –
O=C(O)C1(c2ccccc2)CCN(S(=O)(=O)c2cccs2)CC1 | – | inconclusive: 13 µM [falling, partial curve, poor fit]
CC(C)OCC(O)CN (stereo unspecified) | inconclusive: -48.7% | –
CCn1nc(C)c(NC(=O)CCCSc2nc(-c3ccco3)cc(C(F)(F)F)n2)c1C | inconclusive: 11.7% | –
O=C1CCCN1CCCNC(=S)Nc1ccc(Nc2ccccc2)cc1 | inconclusive: -1.28% | –
COc1ccc2nc(NC(=O)CSc3nc(C)cc(C)n3)sc2c1 | inconclusive: -42.7% | –
CC(=O)OC(C(=O)NC1CCCCC1)c1ccccc1 (stereo unspecified) | inconclusive: -30.5% | –
CCCCc1cc(=O)oc2cc(C)cc(OCC(=O)N[C@@H](CSCc3ccccc3)C(=O)O)c12 | inconclusive: -9.26% | –
COc1cccc(NC(=O)CSc2nnc(NC(=O)C3CC3)s2)c1 | inconclusive: 4.62% | –
CC(C(=O)O)N1C(=O)CSc2ncccc21 (stereo unspecified) | inconclusive: -13.7% | –
O=C(COCc1cc(-c2ccc3c(c2)OCO3)on1)Nc1cccnc1 | inconclusive: -46.5% | –
O=C(OCc1nnc(-c2ccccc2)o1)C1CCN(C(=O)c2ccc(Cl)cc2)CC1 | inconclusive | –

Compound | lipid storage change, negative = inhibition | Potency
COc1ccc(C(=O)Nc2ccc(NC(=O)c3cccs3)cn2)cc1 | – | active: 10.3 µM
Cc1ccc(NC(=S)NCc2ccc(Cl)cc2)c(OC(F)F)c1 | inconclusive: 10.7% | –
COc1ccc(N(CC(=O)NC2CC3CCC2C3)S(=O)(=O)c2ccccc2)cc1OC (stereo unspecified) | inconclusive: 51.2% | –
CCOC(=O)CNC(=O)N1CCCC(C(=O)c2cccc(Cl)c2)C1 (stereo unspecified) | inconclusive: 3.64% | –
O=c1[nH]c(C2CCN(S(=O)(=O)c3ccc(S(=O)(=O)NC4CC4)cc3)CC2)nc2c1nnn2Cc1ccc(F)cc1 | inconclusive: 142% | –
COc1ccc(C2(CN(C(C)=O)C(C)=O)CCCC2)cc1OC | inconclusive: -25.3% | –
O=C(c1cc([N+](=O)[O-])ccc1N1CCOCC1)N1CCCCC1 | inconclusive: -8.68% | –
CCOC(=O)C1CCN(C(=O)CSc2c3c(nc4ccccc24)CCC3)CC1 | inactive: 1.28% | –
Nc1cc(C(=O)O)c(Oc2ccc(Cl)cc2Cl)cc1C(=O)O | inactive: -11.9% | –
CCOC(=O)COc1c(Br)cc(/C=C2\SC(=O)N(CC(=O)N3CCCC3)C2=O)cc1OC | inconclusive: -40.3% | –
CC(C)(C)c1ccc(C(=O)NCCN2CCCC2)cc1 | inconclusive: -12.3% | –
COc1ccc(CN2CCn3ncc(C(=O)Nc4ccc(Cl)cc4Cl)c3C2=O)cc1 | inconclusive: 11.7% | –
O=C(CSc1nc2ccc([N+](=O)[O-])cc2[nH]1)c1ccc(Cl)cc1 | inconclusive: 34.1% | –
CCCCNC(=O)Oc1ccc(C(=O)N2c3ccccc3NC(=O)C2C)cc1 (stereo unspecified) | inconclusive: 32.1% | –
O=C(Nc1ccccn1)c1ccc(Br)s1 | inconclusive: -52% | –
COCC(C)n1c(COc2ccccc2F)nnc1SCC(=O)c1c(N)n(C)c(=O)n(C)c1=O (stereo unspecified) | – | inconclusive: 29.1 µM [cytotoxic, partial curve, poor fit]
CC(C)(C)n1ncc2c(=O)n(CC(=O)OCc3ccccc3)cnc21 | inconclusive: 101% | –
CCCCNC(=O)c1cccnc1SCC(=O)Nc1ccccc1OC | inconclusive: 3.7% | –
COc1ccc(N2CC(C(=O)Nc3nnc(SCC(=O)N4CCCC4)s3)CC2=O)cc1 (stereo unspecified) | inconclusive: 21.8% | –
COCCCNC(=O)C(=O)NCC(c1ccco1)N1CCN(c2ccc(OC)cc2)CC1 (stereo unspecified) | inconclusive: 47.8% | –
O=c1cc(CCl)nc2scc(-c3ccccc3)n12 | inconclusive: 7.7% | –

Entries of single compounds as entered above. Order of values: lipid storage change, negative = inhibition	Potency
`CCOC(=O)COc1c(Br)cc(/C=C2\SC(=O)N(CC(=O)N3CCCC3)C2=O)cc1OC` reads inconclusive: -40.3%	–
`COc1ccc(CN2CCn3ncc(C(=O)Nc4ccc(Cl)cc4Cl)c3C2=O)cc1` reads inconclusive: 11.7%	–
`Cc1ccc(NC(=S)NCc2ccc(Cl)cc2)c(OC(F)F)c1` reads inconclusive: 10.7%	–
`O=C(CSc1nc2ccc([N+](=O)[O-])cc2[nH]1)c1ccc(Cl)cc1` reads inconclusive: 34.1%	–

Remaining list, next part

Compound | lipid storage change, negative = inhibition | Potency
O=C(NCc1ccncc1)c1nc(-c2cccs2)no1 | inconclusive: -22% | –
Cc1ccc(C)c(C(=O)N2CCN(c3ncccn3)CC2)c1 | inconclusive: 347% | –
CCC(=O)c1ccc(OCC(=O)OCC(=O)NCC2CCCO2)cc1 (stereo unspecified) | inconclusive: 46.1% | –
COC(=O)c1ccc(/C=N/Nc2nc(-c3ccccc3)cs2)cc1 | inconclusive: 16.2% | –
CCc1ccc(CNCc2cccnc2)cc1 | inconclusive: 57% | –
O=C(NCCCn1ccnc1)c1csc2ccccc12 | – | inconclusive: 8.2 µM [activator, partial curve]
CCOC(=O)C1CCN(C(=O)C2CCN(S(=O)(=O)CC)CC2)CC1 | inconclusive: 23.6% | –
O=C(COc1nsnc1N1CCOCC1)Nc1ccccc1Cl | inconclusive: -26.6% | –
O=c1c2ccccc2cnn1Cc1ccc(Br)cc1F | – | inconclusive: 16.4 µM [activator, single point]
O=C(COC(=O)CNC(=O)c1ccc(Cl)cc1Cl)Nc1cccc(S(=O)(=O)N2CCCC2)c1 | – | inconclusive: 0.0651 µM [activator, full curve]
CC(C)C(=O)Nc1cccc(C(=O)Nc2cc([N+](=O)[O-])ccc2Cl)c1 | inconclusive: 23.6% [at 9.22 µM] | –
CCC(C)C(=O)Nc1nc2ccc(OC)cc2s1 (stereo unspecified) | inconclusive: 20% | –
COC(=O)c1ccc(C2C(C#N)=C(N)Oc3cc(N)ccc32)cc1 (stereo unspecified) | – | inconclusive: 0.231 µM [activator, full curve]
CCc1nc(NCCN2CCOCC2)c2oc3ccccc3c2n1 | – | inconclusive: 0.0046 µM [activator, full curve, poor fit]
COCc1cc(C)nc(SCC(=O)Nc2cc3c(cc2C#N)OCO3)c1C#N | – | inconclusive: 0.116 µM [activator, full curve, poor fit]
Cc1cccc(OCC(=O)NCc2ccc(F)cc2)c1 | inconclusive: 19.5% | –
O=C(CC1C(=O)NCCN1CC1CCCCC1)NCc1ccc(F)cc1 (stereo unspecified) | inconclusive: 25.1% | –
Cc1ccc(S(=O)(=O)N/N=C\c2cc([N+](=O)[O-])ccc2Cl)cc1 | inconclusive: 12.5% | –
COc1ccc(S(=O)Cc2ccc(C(=O)NC3CC3)o2)cc1 (stereo unspecified) | inactive: 12% | –
CCN(CC)CCCNC(=O)Cn1nc([N+](=O)[O-])c(Cl)c1C | inconclusive: -21.4% | –
O=C(Cn1nnc2ccccc2c1=O)NC1CCCCC1 | inconclusive: 35.5% | –

For convenience, 2 of the compounds above.
Compound | lipid storage change, negative = inhibition | Potency
COc1ccc(S(=O)Cc2ccc(C(=O)NC3CC3)o2)cc1 (stereo unspecified) | inactive: 12% | –
CCN(CC)CCCNC(=O)Cn1nc([N+](=O)[O-])c(Cl)c1C | inconclusive: -21.4% | –

(further entries)

Compound | lipid storage change, negative = inhibition | Potency
N#C/C(=C\c1cccc(NC(=O)c2ccccc2Cl)c1)C(=O)NCCc1ccccc1 | inconclusive: -63.2% | –
O=C(Cn1cnc2cc([N+](=O)[O-])ccc2c1=O)NCCc1ccc(Cl)cc1 | inconclusive: -11.6% | –
CN(C)S(=O)(=O)c1ccc(/C(O)=C2/C(=O)C(=O)N(Cc3cccnc3)C2c2ccco2)cc1 (stereo unspecified) | inconclusive: 12.7% | –
Cc1ccc(S(=O)(=O)N(C)c2cc(S(=O)(=O)Nc3ccncc3)c(C)cc2C)cc1 | – | inconclusive: 0.411 µM [activator, partial curve, poor fit]
CCOc1ccc(C2=Nn3c(nnc3-c3ccccn3)SC2)cc1 | inconclusive: 30.2% [at 9.22 µM] | –
NC(=S)N=Nc1c(O)n(CCCl)c2ccc(Cl)cc12 | inconclusive: -9.92% | –
O=c1[nH]c(CN2CCN(C/C=C/c3ccccc3)CC2)nc2ccccc12 | – | inconclusive: 5.8 µM [rising, full curve]
Cc1cc(N2C(=O)C(O)=C(C(=O)c3cccs3)C2c2cccc(Br)c2)no1 (stereo unspecified) | – | inconclusive: 16.4 µM [falling, single point]
COc1ccccc1NC(=O)N1C2CCCC1CC(NC(=O)c1ccccc1)C2 (stereo unspecified) | inactive: -1.34% | –
Nc1scn[n+]1Cc1cccc2cccnc12 | inconclusive: 23.4% | –
Cc1ccc(C)c(NC(=O)c2nc(Cl)ccc2Cl)c1 | – | inconclusive: 0.461 µM [activator, full curve, poor fit]
CC(=O)c1ccc(NC(=O)CN2C(=O)/C(=C/C(C)=C/c3ccccc3)SC2=S)cc1 | inconclusive: 6.75% | –
COCCn1cnc2c(c1=O)c1nc3ccccc3nc1n2/N=C/c1ccco1 | inconclusive: -24.1% | –
Cc1ccccc1NC(=O)Cn1nc(C)c2ccccc2c1=O | – | inconclusive: 29.1 µM [activator, partial curve]
CCc1ccc(O)c(N=Cc2ccccc2O)c1 | inconclusive: -4.06% | –
Cc1cc(NC(=O)C(C)Sc2nnc(NCc3ccco3)s2)no1 (stereo unspecified) | – | inconclusive: 2.59 µM [falling, single point]
O=S(=O)(Nc1ccccc1N1CCOCC1)c1ccc(Cl)s1 | inconclusive: -0.995% | –
CCOC(=O)c1sc(-c2ccccc2)nc1C | – | inconclusive: 29.1 µM [falling, single point]
